# According to the supplement of paper PMC4635364:
# Counter-ions that a name gives are not always drawn. The list shows a part of the results. Single values are uncertain here, since repeats match poorly.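 ReNCell VM, a human fetal ventral-midbrain neural progenitor line, was differentiated without mitogens. Blinded raters scored images stained for doublecortin (early neurons) or tyrosine hydroxylase (dopaminergic neurons) against untreated wells (0 = no change). Scores were averaged across repeats and both raters, and compounds averaging 2 or more were selected as hits for retesting.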
# Assays:
# [1] = tested on: ReNCell VM; assay: neuronal differentiation score (DCX+ cell fraction vs untreated, manual image score) (score (-3 to 3)); higher = more neuronal differentiation; settings: 2 uM, 2 weeks
# [2] = tested on: ReNCell VM; assay: dopaminergic neuron differentiation score (TH+ cell fraction vs untreated, manual image score) (score (0 to 3)); higher = more TH+ dopaminergic neuron differentiation; settings: 2 uM, 4 weeks, BDNF 10 ng/ml + GDNF 10 ng/ml
smiles,measurement,setting,value
CC(=O)O[C@H]1CC[C@@]2(C)C(=CC[C@@H]3[C@@H]2CC[C@]2(C)C(=O)CC[C@@H]32)C1,neuronal differentiation score,[1]; library: Spectrum,inactive: 0
same,dopaminergic neuron differentiation score,[2]; library: Spectrum,inactive: 0
O=C1CCO1,neuronal differentiation score,[1]; library: Spectrum,inactive: 0
same,dopaminergic neuron differentiation score,[2]; library: Spectrum,inactive: 0
COc1ccc2[nH]cc(CCN)c2c1,neuronal differentiation score,[1]; library: Spectrum,inactive: 0
same,dopaminergic neuron differentiation score,[2]; library: Spectrum,inactive: 0
C=CCN1CC[C@]23CCCC[C@H]2[C@H]1Cc1ccc(O)cc13 [Levallorphan tartrate],neuronal differentiation score,[1]; library: LOPAC,inactive: 0
same,dopaminergic neuron differentiation score,[2]; library: LOPAC,inactive: 0
CCCN(CCC)C1CCc2ccc(O)cc2C1 (stereo not drawn) [R-(+)-7-Hydroxy-DPAT hydrobromide],neuronal differentiation score,[1]; library: LOPAC,inactive: 0
same,dopaminergic neuron differentiation score,[2]; library: LOPAC,inactive: 0
CCCCCCC[n+]1ccc(-c2cc[n+](CCCCCCC)cc2)cc1 [DHBP dibromide],neuronal differentiation score,[1]; library: Tocriscreen,inactive: 0
same,dopaminergic neuron differentiation score,[2]; library: Tocriscreen,inactive: 0
CC1=CC(=O)C2=C(C)C[C@H](O)[C@@H]3[C@H](OC(=O)[C@H]3C)[C@H]12 [Austricine hydrate],neuronal differentiation score,[1]; library: Phytochemical,inactive: 0
same,dopaminergic neuron differentiation score,[2]; library: Phytochemical,inactive: 0
S=C(NC1CCCCC1)N1CCC(c2cnc[nH]2)CC1 [Thioperamide],neuronal differentiation score,[1]; library: Tocriscreen,inactive: 0
same,dopaminergic neuron differentiation score,[2]; library: Tocriscreen,inactive: 0
COc1cc2c(cc1OC)C1CC(=O)C(CC(C)C)CN1CC2 (stereo unspecified) [Tetrabenazine],neuronal differentiation score,[1]; library: Tocriscreen,inactive: 0
same,dopaminergic neuron differentiation score,[2]; library: Tocriscreen,inactive: 0
CCCN[C@@H]1CCc2c(OC)cccc2[C@@H]1C [(+)-AJ 76 hydrochloride],neuronal differentiation score,[1]; library: Tocriscreen,inactive: 0
same,dopaminergic neuron differentiation score,[2]; library: Tocriscreen,inactive: 0
Cn1c2c(c3ccccc31)CCNCC2,neuronal differentiation score,[1]; library: Tocriscreen,inactive: 0
same,dopaminergic neuron differentiation score,[2]; library: Tocriscreen,inactive: 0
CCOC(=O)C1C(C=C(C)C)C1(C)C (stereo unspecified),neuronal differentiation score,[1]; library: Spectrum,inactive: 0
same,dopaminergic neuron differentiation score,[2]; library: Spectrum,inactive: 0
COc1ccc2c(c1O)-c1c(OC)c(OC)cc3c1[C@H](C2)N(C)CC3 [Isocorydine (+)],neuronal differentiation score,[1]; library: Phytochemical,inactive: 0
same,dopaminergic neuron differentiation score,[2]; library: Phytochemical,inactive: 0
CCN(CC)C(C)C(=O)c1ccccc1 (stereo unspecified) [Amfepramone hydrochloride],neuronal differentiation score,[1]; library: Prestwick,inactive: 0
same,dopaminergic neuron differentiation score,[2]; library: Prestwick,inactive: 0
C=C(C)c1cc2cc(C(C)=O)c(O)cc2o1 [euparin],neuronal differentiation score,[1]; library: Natural,inactive: 0
same,dopaminergic neuron differentiation score,[2]; library: Natural,inactive: 0
NCCc1c[nH]c2ccc(O)cc12,neuronal differentiation score,[1]; library: Spectrum,inactive: 0
same,dopaminergic neuron differentiation score,[2]; library: Spectrum,inactive: 0
C#CCN(C)[C@H](C)Cc1ccccc1,neuronal differentiation score,[1]; library: Spectrum,inactive: 0
same,dopaminergic neuron differentiation score,[2]; library: Spectrum,inactive: 0
CN1C[C@H](C(=O)N[C@]2(C)O[C@@]3(O)[C@@H]4CCCN4C(=O)[C@H](Cc4ccccc4)N3C2=O)C=C2c3cccc4[nH]cc(c34)C[C@H]21,neuronal differentiation score,[1]; library: Spectrum,inactive: 0
same,dopaminergic neuron differentiation score,[2]; library: Spectrum,inactive: 0
COc1ccc2c(c[n+](C)c3c4cc5c(cc4ccc23)OCO5)c1OC [Chelerythrine chloride],neuronal differentiation score,[1]; library: LOPAC,inactive: 0
same,dopaminergic neuron differentiation score,[2]; library: LOPAC,inactive: 0
CC[C@H]1[C@@H]2C[C@H]3[C@@H]4N(C)c5ccccc5[C@]45C[C@@H]([C@@H]2[C@H]5O)N3[C@@H]1O,neuronal differentiation score,[1]; library: Spectrum,inactive: 0
same,dopaminergic neuron differentiation score,[2]; library: Spectrum,inactive: 0
NC(=O)C[S+]([O-])C(c1ccccc1)c1ccccc1 (stereo unspecified) [Modafinil],neuronal differentiation score,[1]; library: Prestwick,inactive: 0
same,dopaminergic neuron differentiation score,[2]; library: Prestwick,inactive: 0
COc1ccc(OC)c(C(O)C(C)N)c1 (stereo unspecified),neuronal differentiation score,[1]; library: Spectrum,inactive: 0
same,dopaminergic neuron differentiation score,[2]; library: Spectrum,inactive: 0
CC(C)C[C@H]1C(=O)N2CCC[C@H]2[C@]2(O)O[C@](NC(=O)[C@@H]3C=C4c5cccc6[nH]c(Br)c(c56)C[C@H]4N(C)C3)(C(C)C)C(=O)N12,neuronal differentiation score,[1]; library: Spectrum,inactive: 0
same,dopaminergic neuron differentiation score,[2]; library: Spectrum,inactive: 0

# Two successive entries already listed, for reference:
smiles,measurement,setting,value
CCCN[C@@H]1CCc2c(OC)cccc2[C@@H]1C [(+)-AJ 76 hydrochloride],dopaminergic neuron differentiation score,[2]; library: Tocriscreen,inactive: 0
Cn1c2c(c3ccccc31)CCNCC2,neuronal differentiation score,[1]; library: Tocriscreen,inactive: 0
